For 36 molecules, viability results are on record in PubChem BioAssay.

Some of the results follow. Shown are side measurements of this screen, not its main read-out; they come without a call. The list favours compounds with an active or inconclusive main result.

The experiment can be described thus: reducers of endogenous Her2 protein level, primary screen, SKBR3 breast tumor cells, AlphaScreen, ATP viability (AID 461).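 Note: percent of carrier control wells set as 100% viability.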 The conditions noted are these: 18-24 h, measured here: SKBR3 viability, ATP luminescence, at 10 µM. A general note: Alpha assays give light when donor and acceptor beads are brought close together.
Turning to `CN1CCN(CCCN2c3ccccc3Sc3ccc(Cl)cc32)CC1`, the viability – broadly, a read-out of living cells in per cent, often relative to untreated cells – was 25%.
Then `COc1ccccc1-c1noc(-c2ccco2)n1`, with 102%; and `O=C(Nc1ncc(Cc2ccccc2)s1)C1CCCO1` (stereo unspecified), with 91.5%.
Then `Cc1nc(NC2=NCN(CCCN3CCOCC3)CN2)nc2c(C)cccc12`, with 158%; and `CCN(CC)CCNC(=O)c1ccc(N2CCCCC2)c(NS(=O)(=O)c2ccc(C)cc2)c1`, with 81%; and `COC(=O)c1cc(=O)n(Cc2ccc3c(c2)OCO3)c(=Nc2ccccc2)s1`, with 90%.
Then `CN1CCN(S(=O)(=O)c2ccc(NC(=O)Nc3cccc(Cl)c3)cc2)CC1`, with 96%; and `COCCn1c(-c2ccco2)nc2nc3ccccc3nc21`, with 99.5%.
As for `Cc1ccc2c(c1)C1CCCC3C1N2CC(=O)N3Cc1ccccc1` (stereo unspecified), the viability was 117%.
The figure for `Cc1ccc(-n2nc3cc(Cl)c(NC(=O)c4ccco4)cc3n2)cc1` is 116%; for `Cc1cccc(N2CCN(C(=O)C3CCCN(S(=O)(=O)c4c(C)noc4C)C3)CC2)c1C` (stereo unspecified) it is 78%; for `N#CC1=C(N)N(c2ccccc2)C(c2ccccc2)C1(C#N)C#N` (stereo unspecified) it is 84.5%.
The figure for `CCc1c(C)n([O-])c2c([n+]1=O)CCC2` is 104%; for `CN1CC=C2C(C#N)=C(N)C(C#N)(C#N)C(c3cccc(Cl)c3Cl)C2C1` (stereo unspecified) it is 115%.
The figure for `CC1CCc2c(sc3c2C2=NS(=O)(=O)CCN2C=N3)C1` (stereo unspecified) is 88.5%; for `Cc1ccccc1Cc1c(C)nc2c(C(=O)N3CCN(Cc4ccc5c(c4)OCO5)CC3)cnn2c1C` it is 103%; for `CN1CCCN(C(c2ccccc2)c2ccc(Cl)cc2)CC1` (stereo unspecified) it is 39%.
Take `CCN1CCc2c(C#N)c(N3CCCCC3)nc(NCc3ccccc3)c2C1`: the viability worked out at 103%.
The figure for `COC(=O)CS(=O)(=O)c1nnc([C@H](Cc2ccccc2)NC(=O)OC(C)(C)C)o1` is 77.5%; for `O=C(CNCCC1=CCCCC1)Nc1ccccc1N1CCCCC1` it is 102%; for `c1coc(-c2nnc(-c3cccs3)o2)c1` it is 106%.
As for `Clc1ccc2c(c1)[C@H]1OCC[C@H]1[C@@H](c1ccco1)N2`, the viability was found to be 104%.
Turning to `Fc1cccc(Nc2cc(-n3cccn3)ncn2)c1`, the viability stood at 95%.
Then `COC(=O)c1ccc(CSc2ncnc3c2nnn3-c2ccc(OC)cc2)o1`, with 87.5%; and `Cc1cc(NC(=O)c2ccccc2)ncc1NC(=O)c1ccco1`, with 94%.
Then `O=C(CN1CCN(c2nc(-c3ccc(F)cc3)cs2)CC1)NCc1ccc2c(c1)OCO2`, with 175%; and `COc1ccc(NC(=O)c2oc3ccccc3c2NC(=O)c2ccco2)cc1`, with 90%; and `CCOC(=O)c1sc2cccc(F)c2c1N`, with 105%.
The figure for `O=c1[nH]c2ccccc2n1CCCN1CCN(C(c2ccccc2)c2ccccc2)CC1` is 62%.
Turning to `COc1ccc(OC)c(S(=O)(=O)Nc2ccc(O)c3ccccc23)c1`, the viability is 6%.
In the case of `COCC(=O)Nc1c(C(=O)Nc2ccccc2OC)oc2ccccc12`, the viability is 78%.
Then `O=C(CN1C(=O)c2cccc3cccc1c23)Nc1ccccc1C(=O)NCc1ccco1`, with 89%; and `Cc1ccc(C(=O)Nc2ccc(Cl)cn2)cc1S(=O)(=O)N1CCOCC1`, with 90%; and `COc1ccc(Cl)cc1Nc1nc(NCCO)nc(N2CCCC2)n1`, with 62%.
The figure for `COc1cc(NC(=O)c2ccco2)c(OC)cc1NC(=O)CCC(=O)Nc1cc(C)cc(C)c1` is 106%; for `CC(C)OC(=O)CCCCCN1C(=O)CSC1=S` it is 108%.
